We go through two substances from publication PMC5461506, “Strength of Neisseria meningitidis binding to endothelial cells requires highly-ordered CD147/β2-adrenoceptor clusters assembled by alpha-actinin-4” (Nature Communications, 2017).

Chains of the proteins cited; added tags and fusions are not shown. Residues count along the entry.
UniProt P15311, residues 2-296: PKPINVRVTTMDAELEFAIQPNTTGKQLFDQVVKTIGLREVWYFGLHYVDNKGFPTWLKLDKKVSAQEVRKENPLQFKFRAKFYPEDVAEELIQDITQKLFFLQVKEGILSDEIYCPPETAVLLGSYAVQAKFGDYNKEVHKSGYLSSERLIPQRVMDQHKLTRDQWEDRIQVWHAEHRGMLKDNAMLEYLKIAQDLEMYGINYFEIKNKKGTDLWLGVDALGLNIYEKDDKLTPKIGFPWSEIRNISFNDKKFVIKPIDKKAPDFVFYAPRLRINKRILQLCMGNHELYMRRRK
UniProt O43707: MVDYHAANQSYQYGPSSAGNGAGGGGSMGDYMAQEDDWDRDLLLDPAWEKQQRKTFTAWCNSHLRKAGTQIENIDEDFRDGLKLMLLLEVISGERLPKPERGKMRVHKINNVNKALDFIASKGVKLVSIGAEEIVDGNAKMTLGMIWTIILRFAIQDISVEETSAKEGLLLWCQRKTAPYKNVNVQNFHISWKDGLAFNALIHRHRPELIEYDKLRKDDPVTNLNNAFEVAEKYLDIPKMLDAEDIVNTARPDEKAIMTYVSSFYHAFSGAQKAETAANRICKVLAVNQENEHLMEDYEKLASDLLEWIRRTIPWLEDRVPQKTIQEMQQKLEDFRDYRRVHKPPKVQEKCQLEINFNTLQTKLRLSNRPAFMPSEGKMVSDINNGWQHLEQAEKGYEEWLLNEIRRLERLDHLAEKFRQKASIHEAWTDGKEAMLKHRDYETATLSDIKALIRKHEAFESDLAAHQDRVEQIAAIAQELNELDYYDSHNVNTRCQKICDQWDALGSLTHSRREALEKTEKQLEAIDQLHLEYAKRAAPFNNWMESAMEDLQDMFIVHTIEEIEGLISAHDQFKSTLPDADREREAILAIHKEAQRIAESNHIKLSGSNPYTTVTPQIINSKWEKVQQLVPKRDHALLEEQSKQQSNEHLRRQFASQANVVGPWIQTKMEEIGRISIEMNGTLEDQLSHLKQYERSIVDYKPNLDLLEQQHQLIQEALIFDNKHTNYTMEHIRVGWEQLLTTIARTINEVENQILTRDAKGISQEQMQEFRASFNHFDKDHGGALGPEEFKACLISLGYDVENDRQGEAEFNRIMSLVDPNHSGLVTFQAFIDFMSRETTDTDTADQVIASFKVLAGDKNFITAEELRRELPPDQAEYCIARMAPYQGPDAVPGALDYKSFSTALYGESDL

Results are given in words; binding and its absence hold for the method and conditions named. Some results given as binding are weak or reduced against the parent protein; the word gives no strength.

In assay [1] the target is T1, biotinylated peptide encoding the cytosolic sequence of CD147 (human).
T1 sequence (peptide, biotin on the N-terminus): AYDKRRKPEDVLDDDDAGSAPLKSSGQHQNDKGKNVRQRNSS
As to the kind of experiment: SPR; BIAcore T200, biotinylated peptides captured on streptavidin chip (630 RU CD147, 286 RU CD44), GST fusions as analytes, non-reducing buffer (PBS, 0.02% Tween-20), 25 μl/min, 60 s association, 60 s dissociation; both purified. In general terms: Surface plasmon resonance follows binding to a sensor surface in real time, without labels.

Assay [2] shares this target. The assay can be described thus: pull-down; 1 μg biotinylated peptide on streptavidin-coated beads, GST proteins 0.2 μg in PBS, 0.2% BSA, 1 h at 4 °C; immunoblot with anti-GST; both purified. Background: A western blot detects proteins with antibodies after separation by electrophoresis.

“GST-coupled four-point-one, ezrin, radixin, moesin (FERM) domain of ezrin (from UniProt P15311 2-296) (domain or fragment)”: the binding entry in assay [1] is “binds weakly”.
For “recombinant glutathione-S-transferase (GST)–Actn4 fusion protein (from UniProt O43707 1-911)”, the binding result in assay [2] is “binds”.
